These are yes or no findings as the source states them, for the method shown. Binding seen in cells or lysates may run through a third protein. Some binding calls cover weakened binding; strength is not graded here.
Tests used:
[1] = molecular target: His-tagged recombinant human mitochondrial RNA polymerase (mtRNAP) (human) (UniProt O00411); assay: Ni2+-NTA co-purification after co-expression; composition of the purified complex
[2] = molecular target: His-tagged recombinant human mitochondrial RNA polymerase (mtRNAP) (human) (UniProt O00411); assay: co-purification on Ni2+-NTA through His-tagged mtRNAP after baculovirus co-expression, washes at 0.3 M NaCl

Sequences of proteins named here, by UniProt entry; tags and fusion partners are left off. A change or cut given only in a name is not applied to a line headed by its entry.
UniProt O00411: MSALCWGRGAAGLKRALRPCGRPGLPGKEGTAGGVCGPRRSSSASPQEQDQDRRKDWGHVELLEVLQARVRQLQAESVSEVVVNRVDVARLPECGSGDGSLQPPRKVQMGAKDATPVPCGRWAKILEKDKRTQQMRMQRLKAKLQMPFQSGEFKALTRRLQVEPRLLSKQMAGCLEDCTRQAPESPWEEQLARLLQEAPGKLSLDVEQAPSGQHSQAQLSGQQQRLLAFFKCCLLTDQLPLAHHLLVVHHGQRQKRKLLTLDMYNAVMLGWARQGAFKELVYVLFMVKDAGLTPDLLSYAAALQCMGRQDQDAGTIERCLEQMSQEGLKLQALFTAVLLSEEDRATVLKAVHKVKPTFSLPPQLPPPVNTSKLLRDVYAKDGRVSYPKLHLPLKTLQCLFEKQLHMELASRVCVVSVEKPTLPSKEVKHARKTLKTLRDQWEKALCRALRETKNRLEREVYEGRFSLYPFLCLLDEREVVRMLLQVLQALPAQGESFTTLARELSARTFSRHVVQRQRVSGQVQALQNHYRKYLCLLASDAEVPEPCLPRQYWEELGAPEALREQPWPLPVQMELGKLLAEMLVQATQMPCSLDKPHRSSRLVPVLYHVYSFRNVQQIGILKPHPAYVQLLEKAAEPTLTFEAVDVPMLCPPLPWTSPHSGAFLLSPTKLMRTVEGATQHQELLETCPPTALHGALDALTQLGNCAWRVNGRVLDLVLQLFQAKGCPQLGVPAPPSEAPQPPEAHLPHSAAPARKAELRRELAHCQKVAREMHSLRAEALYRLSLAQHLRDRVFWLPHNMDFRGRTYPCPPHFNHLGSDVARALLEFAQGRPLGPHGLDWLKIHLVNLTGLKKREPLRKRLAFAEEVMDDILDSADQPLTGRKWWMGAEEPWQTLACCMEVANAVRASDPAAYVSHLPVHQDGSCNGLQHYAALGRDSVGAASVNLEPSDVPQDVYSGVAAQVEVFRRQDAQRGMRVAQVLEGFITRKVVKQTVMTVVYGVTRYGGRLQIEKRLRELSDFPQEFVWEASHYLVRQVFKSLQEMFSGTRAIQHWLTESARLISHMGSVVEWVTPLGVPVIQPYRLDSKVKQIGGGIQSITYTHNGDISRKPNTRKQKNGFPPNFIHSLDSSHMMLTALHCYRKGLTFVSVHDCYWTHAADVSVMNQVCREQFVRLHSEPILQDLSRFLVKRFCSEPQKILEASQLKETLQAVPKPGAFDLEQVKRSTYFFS

B1: recombinant human TFB1M (CGI-75 protein) (protein)
chain: QAANELSQNFLLDLRLTDKIVRKAGNLTNAYVYEVGPGPGGITRSILNADVAELLVVEKDTRFIPGLQMLSDAAPGKLRIVHGDVLTFKVEKAFSESLKRPWEDDPPNVHIIGNLPFSVSTPLIIKWLENISCRDGPFVYGRTQMTLTFQKEVAERLAANTGSKQRSRLSVMAQYLCNVRHIFTIPGQAFVPKPEVDVGVVHFTPLIQPKIEQPFKLVEKVVQNVFQFRRKYCHRGLRMLFPEAQRLESTGRLLELADIDPTLRPRQLSISHFKSLCDVYRKMCDEDPQLFAYNFREELKRRKSKNEEKEEDDAENYRL
- binding [1]: binds
- binding [2]: binds

Source: patent publication US20040253728A1, “New method” (priority 2000, published 2004)
